## Small-molecule microarray binding calls

Calls as published in the ROBIN set (doi:10.1002/anie.202211358).

Targets (5′ to 3′):
SAM-II: SAM-II riboswitch RNA pseudoknot, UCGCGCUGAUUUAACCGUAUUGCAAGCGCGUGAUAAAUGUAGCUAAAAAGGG. Hit rate about 1% of about 21,000 compounds.
PreQ1: PreQ1 riboswitch RNA pseudoknot, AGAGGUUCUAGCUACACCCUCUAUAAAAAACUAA. From B. subtilis. Hit rate about 0.7% of about 24,000 compounds.
TPP: TPP riboswitch RNA three-way junction, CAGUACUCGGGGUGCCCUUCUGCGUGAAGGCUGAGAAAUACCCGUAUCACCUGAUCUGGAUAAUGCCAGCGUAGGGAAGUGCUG. Hit rate about 0.7% of about 24,000 compounds.

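The test is a small-molecule microarray: each compound is printed twice on a reactive slide, and binding shows as fluorescence of the labelled oligonucleotide after washing. For the PreQ1, TPP and SAM-II riboswitches the laboratory earlier reported (doi:10.1038/s41467-019-09493-3) 1 µM RNA, 2 h, and a rule that included a mean Z-score above 3 (spot signal-to-noise against the whole library), a score well above that on a control array, and duplicate spots agreeing (coefficient of variation under 100). The data file gives only the calls; its cut-offs may differ, and compounds hitting several targets are kept. A missing hit is not proof of no binding, and a hit is not a measured affinity.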
A compound is marked 1 if it was called a hit and 0 if it was screened but was not.
This is an unselected part of the compounds tested.
A dash means that no call is listed here.

SMILES | SAM-II | PreQ1 | TPP
CCCOc1cc(Cl)c(CNC(C)c2n[nH]c(=O)[nH]2)cc1OCC (centres unmarked) | 0 | 0 | 0
CCO[C@H]1C[C@@H](O)C12CCN(C(=O)CNS(=O)(=O)c1cccs1)CC2 | 0 | 0 | 0
Cc1cc(NCc2ccccc2)n2nc(-c3ccccc3)c(C)c2n1 | - | 0 | 0
CN1C[C@H](NC(=O)c2ccc3[nH]c(=O)[nH]c3c2)C[C@H]1CO | 0 | 0 | 0
Cc1ccc(S(=O)(=O)N[C@@H](Cc2ccccc2)C(=O)CCl)cc1 | 0 | 0 | 0
NC12CC3CC(CC(C3)C1)C2 | 0 | 0 | 0
COC(=O)c1nn(Cc2nc(N)nc(N(C)C)n2)c2ccccc12 | 0 | 0 | 0
COCCNc1nc(-c2ccc(C(C)(C)C)cc2)nc2ccccc12 | 0 | 0 | 0
O=C1CCCc2cc3c(cc21)CC1(C3)Cc2cc3c(cc2C1)C(=O)CCC3 | 0 | 0 | 0
OC[C@H]1CCN(Cc2ccccn2)C[C@H]1O | 0 | 0 | 0
CC(=O)c1cnc(Nc2nc(-c3ccccc3)c3cc(Cl)ccc3n2)nc1C | 0 | 0 | 0
CCOC(=O)c1cnc2ccc(Br)cc2c1NCC(C)O (centres unmarked) | 0 | 0 | 0
CCC1(C)CC(CCNCc2ccc(N(C)C)cc2)(c2ccccc2OC)CCO1 (centres unmarked) | 0 | 0 | 0
COc1ccccc1NC(CNS(=O)(=O)c1ccc(Cl)cc1)c1ccccc1 (centres unmarked) | - | 0 | 0
Cn1c(=O)c2c(nc3n(CCCO)c(-c4ccc(F)cc4)cn23)n(C)c1=O | 0 | 0 | 0
CCC(O)c1nc2ccccc2n1Cc1cc(C)ccc1C (centres unmarked) | - | 0 | 0
Nc1nnc(SCC(=O)N(c2ccccc2)c2ccccc2)s1 | 0 | 0 | 0
Cc1ccc(Nc2nc(C)cc(C)c2C(N)=O)cc1 | 0 | 0 | 0
CCC(NCc1cc(N2CCOCC2)ncn1)C(=O)NC1CCCC1 (centres unmarked) | 0 | 0 | 0
COC(=O)c1ccc(C2C(C#N)=C(N)Oc3cc4c(cc32)OCO4)cc1 (centres unmarked) | 0 | 0 | 0
OCCCNc1ncnc2ccc(Br)cc12 | 0 | 0 | 0
Cn1cccc1CNC1CCCCCCC1 | 0 | 0 | 0
Cc1nnc2c3ccccc3nc(Nc3ccccc3Br)n12 | - | 0 | 0
N#Cc1c(N)nc2c(c1-c1cnc(N3CCCC3)nc1)COCC2 | 0 | 0 | 0
CCc1cc(Nc2ccc(Cl)c(C(F)(F)F)c2)n2ncnc2n1 | 0 | 0 | 0
CC(=O)Nc1ccc(CNC(=O)CNC2CCN(S(C)(=O)=O)CC2)cc1 | 0 | 0 | 0
CCc1n[nH]c(SCC(=O)N2[C@@H]3CC[C@H]2C[C@@H](O)C3)n1 | 0 | 0 | 0
Cc1[nH]nc2c1C(c1ccc(OC(C)C)cc1)C(C#N)=C(N)O2 (centres unmarked) | 0 | 0 | 0
CCN(CCS(=O)(=O)c1ccc(C)cc1)C(=O)C1CC12CCNCC2 (centres unmarked) | 0 | 0 | 0
COc1ccc(C2=C(Nc3ccccc3)c3ccccc3C2=O)cc1 | 0 | 0 | 0
O=Cc1c[nH]c2ncccc12 | 0 | 0 | 0
O=C(NCC(O)c1ccccc1F)C1CCN(C(=O)C2CCCC2)CC1 (centres unmarked) | 0 | 0 | 0
CCCc1c(C)nc2ncnn2c1Nc1ccc(N2CCOCC2)cc1 | 0 | 0 | 0
NCC(=O)c1cccc2ccc[n+]([O-])c12 | 0 | 0 | 0
CC1(CCn2cccn2)NCCc2[nH]cnc21 (centres unmarked) | 0 | 0 | 0
Cc1nnc(Cc2ccccc2)c2[nH]nc(C)c12 | 0 | 0 | 0
CN(C)c1ccc(NC2=NS(=O)(=O)c3ccccc32)cc1 | 0 | 0 | 0
COc1ccc(-n2nc(C)c(C(C)=O)c2C)cc1CO | 0 | 0 | 0
CCOc1cc(CNCc2cccnc2)ccc1Oc1nnnn1-c1ccccc1 | - | 0 | 0
CS(=O)(=O)N1CCc2cc(N)ccc21 | 0 | 0 | 0
Cc1cc(C)cc(Nc2nc3ccccc3c3nnc(C)n23)c1 | 0 | 0 | 0
CS(=O)(=O)NCCNCc1ccc(OCC(=O)N2CCOCC2)cc1 | 0 | 0 | 0
CC1=NN(c2ccccc2)C(=S)C1=CNc1nc(-c2ccccc2)cs1 | 0 | 0 | 0
Cl.O=C1CCCN1CCCNCc1cccs1 | 0 | 0 | 0
O=C(c1cccc(-n2cnnc2)c1)N1CCOc2ccc(CO)cc2C1 | 0 | 0 | 0
CSCC[C@@H](CO)NC(=O)CSc1nc(C)n[nH]1 | 0 | 0 | 0
Cc1cc(C(=O)N2C[C@@H]3c4ccccc4OC[C@]3(CO)C2)nc2[nH][nH]c(=O)c12 | 0 | 0 | 0
Cc1nc2ccccc2n1CC(O)COc1ccc(C2C=CCC2)cc1 (centres unmarked) | 0 | 0 | 1
COC(=O)C(Nc1cc(C)nc2nc(-c3ccccc3C)nn12)c1ccccc1 (centres unmarked) | - | 0 | 0
CN1CCc2c(n(Cc3ccc(C(=O)NO)cc3)c3ccccc23)C1 | 0 | 0 | 0
c1ccc(Sc2ncccn2)nc1 | 0 | 0 | 0
CCOc1ccc2nc(NC(N)=NC(=O)c3ccccc3NC)nc(C)c2c1 | 0 | 0 | 0
C=CCNc1nnc(-c2ccc(Cl)cc2)s1 | 0 | 0 | 0

Repeated from the top, 4 entries:

SMILES,SAM-II,PreQ1,TPP
CCCOc1cc(Cl)c(CNC(C)c2n[nH]c(=O)[nH]2)cc1OCC (centres unmarked),0,0,0
CCO[C@H]1C[C@@H](O)C12CCN(C(=O)CNS(=O)(=O)c1cccs1)CC2,0,0,0
Cc1cc(NCc2ccccc2)n2nc(-c3ccccc3)c(C)c2n1,-,0,0
CN1C[C@H](NC(=O)c2ccc3[nH]c(=O)[nH]c3c2)C[C@H]1CO,0,0,0